The text below walks through data of PMC7819943, “Rice protein-binding microarrays: a tool to detect cis-acting elements near promoter regions in rice”.

The chains behind the UniProt entries cited, without tags or fusion partners.
UniProt Q0JBA9, entry or part of it: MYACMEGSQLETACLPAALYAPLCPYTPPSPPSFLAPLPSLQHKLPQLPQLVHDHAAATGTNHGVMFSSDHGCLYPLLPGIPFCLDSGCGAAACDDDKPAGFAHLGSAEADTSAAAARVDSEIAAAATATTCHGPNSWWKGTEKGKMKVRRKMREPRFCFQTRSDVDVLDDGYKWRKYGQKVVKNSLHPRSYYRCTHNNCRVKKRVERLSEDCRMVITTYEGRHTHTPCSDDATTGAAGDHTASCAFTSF

The other results are listed elsewhere or left out.

The assay has as its target OsWRKY34 (Oryza sativa, UniProt Q0JBA9 1-250). As to the kind of experiment: protein-binding microarray (RPBM); PBS, 2% BSA, 51.3 ng/ul salmon testes DNA, 50 uM zinc acetate, 200 nM TF, 25 C, 1 h; high values mean tight binding. To be noted: protein: recombinant; tags: N-terminal polyhistidine and DsRed monomer fusion (pET32a); label: CyDye5-dUTP incorporated in the synthesized complementary strand; 3' TTTTT single-stranded linker to array surface; dsDNA, one strand shown. An outline of the steps: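 In PBS with 2% BSA, salmon testes DNA and 50 µM zinc acetate, 200 nM protein was incubated on a custom Agilent array at 25 °C for 1 h and then washed off. The array had been made double-stranded by primer extension with Cy5-dUTP and blocked with 2% BSA. The proteins were transcription factors fused N-terminally to polyhistidine and DsRed, expressed in E. coli BL21-CodonPlus and purified on Ni–NTA. The binding signal is per-feature fluorescence intensity (arbitrary units) from an Axon 4000B scanner.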
Consider “CTCTCTCTCGCTCTTCAAATCCAGCTGCTGCCGTACGAACCGGAGTCACCTAGTGCAG”, for which the binding signal was 9680 fluorescence intensity (a.u.). The result for “CTCGACGCTGCTCCTCTCCCACTCCTTCGCGTTCACCTTCCGGAGTCACCTAGTGCAG” reads 11600 fluorescence intensity (a.u.). With “CCTCGTCCGCCTTGGTCTTCTTCCAGCCGAGGAGCAACCGCGGAGTCACCTAGTGCAG” the figure was 8510 fluorescence intensity (a.u.); with “AATCCGGTCAGTCTGCGAGTGAGCTCACACCTCGATCCTCCGGAGTCACCTAGTGCAG”, 8160 fluorescence intensity (a.u.).

Consider “AGCTACATACGTACCTACGTTACGTTAATTTCTTGCTTGCCGGAGTCACCTAGTGCAG”, for which the binding signal was 9350 fluorescence intensity (a.u.). The result for “AGTGTTTTGTTTTCTGAAGTTCAGATTACTCTACTATTGTCGGAGTCACCTAGTGCAG” reads 8230 fluorescence intensity (a.u.); that for “ACCAACCCCTGCATTGACCTCACCTCACCTCACTCATCCCCGGAGTCACCTAGTGCAG”, 8880 fluorescence intensity (a.u.). The result for “TCTTATTGACTATTTTCCAAAAGGTTATGTTTTCTTGCTACGGAGTCACCTAGTGCAG” reads 8890 fluorescence intensity (a.u.).

Regarding “ATATGCAAAATTCGCATGCCCGCTCATCGGCCTTTGTCACCGGAGTCACCTAGTGCAG”, the binding signal is 8100 fluorescence intensity (a.u.). The result for “AACCACGCGCCCTACCCCGCAGCCTCCTTGTGCACGCCCGCGGAGTCACCTAGTGCAG” reads 9070 fluorescence intensity (a.u.); that for “CTCTACGTCACCTTCGCGCTCGTCATCCTGCTCCTCCTCACGGAGTCACCTAGTGCAG”, 11700 fluorescence intensity (a.u.); that for “CCTCGTACACCTCATCTGTCGACATCTTAGTTATTCACCACGGAGTCACCTAGTGCAG”, 14000 fluorescence intensity (a.u.). The result for “GCATTGCTGCTGCTGAAGCTGAGCTCTCTCCGTTTCAACTCGGAGTCACCTAGTGCAG” reads 10900 fluorescence intensity (a.u.); that for “GCCGCCTGAACTTTTTCTTTTTTGCGAGGATGTTATTTTTCGGAGTCACCTAGTGCAG”, 9000 fluorescence intensity (a.u.); that for “GCAGCAGCACCACCACCACCGCTTCGTCCGCCCCGTGCCCCGGAGTCACCTAGTGCAG”, 9610 fluorescence intensity (a.u.).

Consider “ACACCATTAATACCCGGTCTCACCTCTCATACGCACACAACGGAGTCACCTAGTGCAG”, for which the binding signal was 8740 fluorescence intensity (a.u.).

Regarding “TTCTACTCTATGCATGAACTTCACCTTTATCGATCTAAAACGGAGTCACCTAGTGCAG”, the binding signal was 11800 fluorescence intensity (a.u.). The result for “ATATGCTCCGTCCTGCTTTGCCTTGTGTTAATGTGTGTTGCGGAGTCACCTAGTGCAG” reads 10100 fluorescence intensity (a.u.); that for “GTTGGGTGGTGGTGGCTACTGATGATTACACTATGGCAAACGGAGTCACCTAGTGCAG”, 10800 fluorescence intensity (a.u.); that for “GATTTGCGTGGACACTTTTTAGTATTCTTTGGATATAGTACGGAGTCACCTAGTGCAG”, 9150 fluorescence intensity (a.u.).

“CGAGAGAGAGAGGGGAGGGTTTTGGGTTGTGCTTAGGTTTCGGAGTCACCTAGTGCAG”: the binding signal is 13100 fluorescence intensity (a.u.). The result for “CTCGCTGCATTCCTCCCGCCTTGCCGCCACCGCCAAGCCACGGAGTCACCTAGTGCAG” reads 10200 fluorescence intensity (a.u.); that for “ACAATCTCGAATATATCCTAGTACCAACGATCCCCATACTCGGAGTCACCTAGTGCAG”, 8440 fluorescence intensity (a.u.). Turning to “ATTTGATTGTCTTATGCTTGTTCTTTGATGATAAGCCATACGGAGTCACCTAGTGCAG”, the binding signal was 10900 fluorescence intensity (a.u.). With “CACCACCGTCCCCGACTTCTTCCACCACCAGCCCGACCCCCGGAGTCACCTAGTGCAG”, the binding signal was 8090 fluorescence intensity (a.u.). With “TATGACTTGGCCACTTGTCCCGTTGGGCCCTCACCGAGTGCGGAGTCACCTAGTGCAG” the figure was 9170 fluorescence intensity (a.u.); with “AAATGAATTTATTATGCATACGACCCAACCGTTTGACTCACGGAGTCACCTAGTGCAG”, 8280 fluorescence intensity (a.u.).

In the case of “CCACCATTGCTCTGGTCTCTGGTCCCATCGTCCACTACAGCGGAGTCACCTAGTGCAG”, the binding signal is 11000 fluorescence intensity (a.u.). On to “GGTTTTAGCAACCGTTTCCTTATTTGACTTATGGGGCTAGCGGAGTCACCTAGTGCAG”, for which the binding signal is 8750 fluorescence intensity (a.u.). The result for “ACGTGGCGATGTTATTTTCTATGTTCCTTAACAACTTTTACGGAGTCACCTAGTGCAG” reads 9000 fluorescence intensity (a.u.).

“TTGTTCTGTTTTGAGGTCATGTTTGGCTGTTCTGTGACTGCGGAGTCACCTAGTGCAG”: the binding signal was 8610 fluorescence intensity (a.u.).

Turning to “GCCGCATTTCTCCTTTCCTCCTCTCACTCGCACGGCCCAACGGAGTCACCTAGTGCAG”, the binding signal is 8530 fluorescence intensity (a.u.).

In the case of “TGCTGTTTTGTATTGTTGCTATTTTTTCTTAAGATTACCACGGAGTCACCTAGTGCAG”, the binding signal was 10000 fluorescence intensity (a.u.).

“ATTCAGGTTTTCCGTCATACCTCCATCTCCTCACGATTCACGGAGTCACCTAGTGCAG”: the binding signal was 9030 fluorescence intensity (a.u.).

For the sequence “CAGTCTTGAACTAATTATGGTCTTGTTCGGTTAATCCCTCCGGAGTCACCTAGTGCAG”, the binding signal is 8570 fluorescence intensity (a.u.).

On to “GGTCATACGTGTCATATTGCCCCTCAGTTATGCATTCATACGGAGTCACCTAGTGCAG”, for which the binding signal is 8320 fluorescence intensity (a.u.). In the case of “CTCCTACAGTCGTACTGCCTCGTCCCGCACTCCGTCAACACGGAGTCACCTAGTGCAG”, the binding signal is 11700 fluorescence intensity (a.u.). The result for “ATCTCCTACAACGTTCTCGATGTGCTATCGGGGCCCTTTTCGGAGTCACCTAGTGCAG” reads 9800 fluorescence intensity (a.u.); that for “TTGACCACACACACTCCATGTCTAGTACAGTACTCATCTACGGAGTCACCTAGTGCAG”, 10600 fluorescence intensity (a.u.). With “GGAGCGCGCGGCTTTTGATTTCGTGGGATCTCAGGGGCGGCGGAGTCACCTAGTGCAG”, the binding signal was 8620 fluorescence intensity (a.u.). With “TTCCATCGGTCGGCCAGAATTGCTGCATGCTGTTGTCTTACGGAGTCACCTAGTGCAG” the figure was 9850 fluorescence intensity (a.u.); with “CACATGATGGCAGGGCAGGGTTCACATGAGCTCTAACGGTCGGAGTCACCTAGTGCAG”, 8140 fluorescence intensity (a.u.).
